Structures are written as SMILES. The list does not hold the whole screen: it gathers tests that were run many times, whatever their T/C, doses with no T/C, and many T/C values between a quarter and a half above the control. Other doses and runs of a compound stand elsewhere. T/C: endpoint of the treated group in % of that of the vehicle group. Some entries give survivors of the animals treated and no T/C: the source files T/C as zero there, which appears to mark a toxic dose or a test without result, not a measured value. Some survivor counts are full or nearly so, which does not show that the dose was tolerated: the source hardly ever lists a survival T/C far under the control, and the zero likely stands for such cases as well. Counts of survivors are from the toxicity check (mostly the fifth day) where no day follows; animals may have died later. Schedule codes are those of the source, read here as Q, the interval in days (D) or hours (H), X, the number of doses. Some entries were tested several times; their values stand side by side, smallest first. Some schedules carry Z or #; the key to these is not given. Where survival is the endpoint, this PubChem deposit counts one and a half times the control or more as active, and values a quarter to a half above the control carry no call in these data; other NCI protocols may use other cut-offs. Some T/C values are followed by the survivors on the day toxicity was checked, most often the fifth; where none is given, no animal had died by that day. Additions like (4×) say how often a value occurs here.

The test has as its system BDF1 mice, P388 leukemia (terephthalanilide-resistant), survival T/C. The test can be described thus: NCI In Vivo Anticancer Drug Screen. Data for tumor model P388 Leukemia resistant to A Terephthalanilide; NSC 38280 (intraperitoneal) in B6D2F1 (BDF1) mice. To be noted: T/C endpoint: median survival time, higher T/C = longer survival. The procedure:
The antitumor activity of compounds was measured in mice bearing transplantable tumors. Survival or tumor size were measured and the results are expressed as the measurement made in the treated group (T) divided by the measurement made in the vehicle treated control group (C). The tumor model used in this assay is P388 Leukemia resistant to A Terephthalanilide; NSC 38280 (intraperitoneal) in B6D2F1 (BDF1) mice

The mark [1] stands for this setting: dose: 3.0 mg/kg/injection, schedule: Q01DX010 (ip), vehicle: saline.
The mark [2] stands for this setting: dose: 80.0 mg/kg/injection, schedule: Q01DX010 (ip), vehicle: saline.
The mark [3] stands for this setting: dose: 120.0 mg/kg/injection, schedule: Q01DX010 (ip), vehicle: saline.
[4] abbreviates: dose: 6.25 mg/kg/injection, schedule: Q01DX010 (ip), vehicle: saline.
Setting [5] is: dose: 25.0 mg/kg/injection, schedule: Q01DX010 (ip), vehicle: saline.
Setting [6] is: dose: 62.5 mg/kg/injection, schedule: Q01DX010 (ip), vehicle: saline.
The mark [7] stands for this setting: dose: 125.0 mg/kg/injection, schedule: Q01DX010 (ip), vehicle: saline.
Where [8] appears, read: dose: 50.0 mg/kg/injection, schedule: Q01DX010 (sc), vehicle: steroid suspending solution.
Setting [9] is: dose: 10.0 mg/kg/injection, schedule: Q01DX010 (ip), vehicle: saline.
Where [10] appears, read: dose: 40.0 mg/kg/injection, schedule: Q01DX010 (ip), vehicle: saline.
[11] abbreviates: dose: 128.0 mg/kg/injection, schedule: Q01DX010 (ip), vehicle: saline.
Where [12] appears, read: dose: 50.0 mg/kg/injection, schedule: Q01DX010 (ip), vehicle: saline.
[13] abbreviates: dose: 100.0 mg/kg/injection, schedule: Q01DX010 (ip), vehicle: saline.
Setting [14] is: dose: 250.0 mg/kg/injection, schedule: Q01DX010 (ip), vehicle: saline.
Where [15] appears, read: dose: 31.3 mg/kg/injection, schedule: Q01DX010 (ip), vehicle: saline.

With `CN(C)c1ccc(/C=C\c2ccnc3ccccc23)cc1`, the survivor count under setting [1] was 6 of 6 and the survivor count (dose: 6.0 mg/kg/injection, schedule: Q01DX010 (ip), vehicle: saline) was 6 of 6.

As for `O=C(Nc1cccc(C(=O)Nc2ccc(C3=NCCN3)cc2)c1)c1ccc(C2=NCCN2)cc1`, the T/C (dose: 54.0 mg/kg/injection, schedule: Q01DX010 (ip), vehicle: saline) is 145 % of control. The survivor count was 1 of 6 under setting [2]; 0 of 6 under setting [3]; 0 of 6 (dose: 180.0 mg/kg/injection, schedule: Q01DX010 (ip), vehicle: saline).

Regarding `N=[N+]=CC(=O)OCC(N)C(=O)O` (stereo not drawn), the T/C reads like this: (dose: 3.13 mg/kg/injection, schedule: Q01DX010 (ip), vehicle: saline) 130 and 133 % of control; under setting [4], 144 and 145 % of control. Moreover, the survivor count under setting [5] is recorded as 5 of 6.

Consider `O=c1cn[nH]c(=O)[nH]1`, for which the survivor count is given as 6 of 6 under setting [6]; 6 of 6 under setting [7]; 6 of 6 (dose: 500.0 mg/kg/injection, schedule: Q01DX010 (ip), vehicle: saline).

For the compound `C[C@]12C=CC(=O)C=C1CC[C@@H]1[C@@H]2C(=O)C[C@@]2(C)[C@H]1CC[C@]2(O)C(=O)CO`, the survivor count was 6 of 6 (dose: 12.5 mg/kg/injection, schedule: Q01DX010 (sc), vehicle: steroid suspending solution); 6 of 6 under setting [8]; 6 of 6 (dose: 100.0 mg/kg/injection, schedule: Q01DX Z (sc), vehicle: steroid suspending solution); 5 of 6 and 6 of 6 (dose: 200.0 mg/kg/injection, schedule: Q01DX Z (sc), vehicle: steroid suspending solution).

Turning to `CN(N=O)C(N)=O`, under setting [9], the T/C is 131 % of control. Also, under setting [10], the survivor count was 6 of 6.

As to `Nc1cc(C(=O)Nc2ccc(C3=NCCN3)cc2)cc(C(=O)Nc2ccc(C3=NCCN3)cc2)c1`, the T/C (dose: 32.0 mg/kg/injection, schedule: Q01DX010 (ip), vehicle: saline) is 133 % of control. Under setting [11], the survivor count is 2 of 6.

Consider `O=C1C(NC(=O)C2CCCCC2)=C(N2CC2)C(=O)C(NC(=O)C2CCCCC2)=C1N1CC1`, for which the survivor count is on record as 6 of 6 under setting [5], 6 of 6 under setting [12] and 6 of 6 under setting [13].

Consider `CN(C)c1ccc(Nc2c3ccccc3nc3ccccc23)cc1`, for which the survivor count under setting [3] is on record as 6 of 6.

Consider `OCC1OC(n2cnc3c(=S)nc[nH]c32)C(O)C1O` (stereo not drawn), for which the survivor count under setting [2] is 6 of 6. In addition, the T/C (dose: 160.0 mg/kg/injection, schedule: Q01DX010 (ip), vehicle: saline) was 138 % of control.

Consider `CCN(CC)CCNc1ccc(C)c2sc3ccccc3c(=O)c12`, for which the T/C is 126 and 133 % of control under setting [12]; 127 % of control under setting [13]. Besides, the survivor count (dose: 200.0 mg/kg/injection, schedule: Q01DX010 (ip), vehicle: saline) is reported as 6 of 6.

On to `OCC1OC(n2cnc3c(Cl)ncnc32)C(O)C1O` (stereo not drawn), for which the survivor count is, setting by setting: under setting [6], 6 of 6; under setting [7], 6 of 6.

Take `C[C@H]1C(=O)O[C@@H]2CCN3CC=C(COC(=O)[C@](C)(O)[C@@]1(C)O)[C@H]23`: the survivor count under setting [4] is listed as 6 of 6.

In the case of `Nc1nc(=S)c2[nH]cnc2[nH]1`, the T/C was 131 and 143 % of control (dose: 5.0 mg/kg/injection, schedule: Q01DX010 (ip), vehicle: saline); 125 % of control under setting [9].

`CCCCNc1ncnc2c1cnn2C`: the survivor count is recorded as 6 of 6 under setting [7] and 0 of 6 under setting [14].

Turning to `CC[C@]1(O)C[C@H]2CN(CCc3c([nH]c4ccccc34)[C@@](C(=O)OC)(c3cc4c(cc3OC)N(C=O)[C@H]3[C@@](O)(C(=O)OC)[C@H](OC(C)=O)[C@]5(CC)C=CCN6CC[C@]43[C@@H]65)C2)C1`, for the setting “dose: 0.5 mg/kg/injection, schedule: Q01DX010 (ip), vehicle: saline”, the survivor count is 6 of 6.

`N#[N+]c1cnc([O-])[nH]c1=O`: the T/C by setting is: (dose: 2.5 mg/kg/injection, schedule: Q01DX010 (ip), vehicle: saline) 127 % of control; under setting [9], 131 % of control [5 of 6 alive] (2×). For the same compound, under “dose: 20.0 mg/kg/injection, schedule: Q01DX010 (ip), vehicle: saline”, the survivor count is reported as 0 of 6.

With `O=C(Nc1ccc(NC(=O)Nc2ccc(C3=NCCN3)cc2)cc1)Nc1ccc(C2=NCCN2)cc1`, the T/C is, setting by setting: (dose: 165.0 mg/kg/injection, schedule: Q01DX010 (ip), vehicle: saline) 127 % of control; under setting [14], 138 % of control; (dose: 375.0 mg/kg/injection, schedule: Q01DX010 (ip), vehicle: saline) 138 % of control.

As for `Nc1ncnc2[nH]ncc12`, the survivor count under setting [1] is reported as 6 of 6.

Consider `Nc1nc(N)c2nc(CNc3ccc(C(=O)NC(CCC(=O)O)C(=O)O)cc3)cnc2n1` (stereo not drawn), for which the T/C (dose: 100.0 micrograms/kg/injection, schedule: Q01DX010 (ip), vehicle: other) is 125 % of control.

For the compound `CC/C(=C(/CC)c1ccc(O)cc1)c1ccc(O)cc1`, the survivor count is 6 of 6 (dose: 25.0 mg/kg/injection, schedule: Q01DX010 (sc), vehicle: steroid suspending solution); 6 of 6 under setting [8]; 6 of 6 (dose: 100.0 mg/kg/injection, schedule: Q01DX010 (sc), vehicle: steroid suspending solution).

As to `CC(=O)Nc1ccc2nc3ccc(NC(C)=O)cc3[n+](-c3ccccc3)c2c1`, the survivor count by setting is: under setting [15], 6 of 6; under setting [6], 6 of 6.

On to `[I][Hg][CH2]C1COC([CH2][Hg][I])CO1` (stereo not drawn), for which the survivor count under setting [4] was 6 of 6.

With `CN=C(NC)c1ccc(NC(=O)c2ccc(C(=O)Nc3ccc(C(=NC)NC)cc3)c(Cl)c2)cc1`, the survivor count reads like this: under setting [10], 6 of 6; (dose: 60.0 mg/kg/injection, schedule: Q01DX010 (ip), vehicle: saline) 5 of 6.

Take `CN=C(NC)c1ccc(NC(=O)Nc2ccc(NC(=O)Nc3ccc(C(=NC)NC)cc3)cc2)cc1`: the survivor count (dose: 45.0 mg/kg/injection, schedule: Q01DX010 (ip), vehicle: saline) is 1 of 6.

As for `O=C1CCC(N2C(=O)c3ccccc3C2=O)C(=O)N1` (stereo not drawn), the T/C under setting [15] was 131 % of control.

Take `CS(=O)(=O)OCCN(CCOS(C)(=O)=O)c1ccc(N=O)cc1`: the survivor count was 5 of 6 and 6 of 6 (dose: 4.0 mg/kg/injection, schedule: Q01DX010 (ip), vehicle: saline); 5 of 6 (dose: 8.0 mg/kg/injection, schedule: Q01DX010 (ip), vehicle: saline); 0 of 6 (dose: 16.0 mg/kg/injection, schedule: Q01DX010 (ip), vehicle: saline).

As to `CCCCn1cnc2c(=S)nc[nH]c21`, the survivor count (dose: 64.0 mg/kg/injection, schedule: Q01DX010 (ip), vehicle: saline) is 6 of 6 and the survivor count under setting [11] is listed as 6 of 6.

Regarding `CCCNc1ncnc2[nH]ncc12`, under setting [4], the survivor count is 6 of 6.

For `S=P(N1CC1)(N1CC1)N1CC1`, the T/C reads like this: (dose: 1.5 mg/kg/injection, schedule: Q01DX010 (ip), vehicle: saline) 125 % of control; under setting [1], 137 % of control.

Turning to `C[n+]1c2ccccc2nc2c(N)cc(N)cc21`, under setting [10], the survivor count is listed as 0 of 6.

For `O=P1(N(CCCl)CCCl)NCCCO1` (stereo not drawn), the T/C by setting is: (dose: 22.5 mg/kg/injection, schedule: Q01DX010 (ip), vehicle: saline) 138 % of control; (dose: 90.0 mg/kg/injection, schedule: Q01DX005 (ip), vehicle: saline) 145 % of control. In addition, for the setting “dose: 180.0 mg/kg/injection, schedule: Q01DX005 (ip), vehicle: saline”, the survivor count is given as 6 of 6.

In the case of `C[C@@H]1C[C@@H]([C@H](O)CC2CC(=O)NC(=O)C2)C(=O)[C@@H](C)C1`, the T/C under setting [10] was 125 % of control.

These data come from PubChem BioAssay AID338 (DTP/NCI, 2004).
